Record: PubChem BioAssay AID1224830 (NIAID, 2016)
Aim: 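Regulators of TLR4 signalling towards TNF-alpha in macrophage-like cells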 (primary screen). Cell system: human THP-1 monocytic leukaemia cells, TNF dual-luciferase reporter clone, PMA-differentiated to macrophage-like cells. Reagent: siRNA pool against human genes, 50 nM. Time to read-out: LPS for 4 h, given about 3 days after siRNA transfection. Conditions: bacterial LPS (TLR4 ligand), 10 ng/ml. Measurement: 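TNF firefly reporter luminescence divided by renilla, normalised to the plate median, then turned into a robust z-score for each replicate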. Direction: TNF reporter robust z-score: higher = stronger TNF reporter response to LPS. Rule for the call: 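a well is active when its z-score exceeds 2.8 or falls below -1.5; control wells carry no call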.
The deposit covers about 18,000 reagents; shown is a random part of them. About 2,900 of all reagents (16%) count as active. 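Calls are made per well; low scores hint the gene aids the LPS response, high scores that it dampens it.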 Repeated entries: four replicate wells of each siRNA pool.

How did the screen score PTH2?
TNF reporter robust z-score: 1.52; activity call: inactive

What did the screen give for PTH2?
TNF reporter robust z-score: 1.95; activity call: inactive

What did the screen give for PTH2?
TNF reporter robust z-score: 1.27; activity call: inactive

How did the screen score PTH2?
TNF reporter robust z-score: 2.58; activity call: inactive

How did the screen score LIN7B?
TNF reporter robust z-score: -1.18; activity call: inactive

With LIN7B, what does the deposit list?
TNF reporter robust z-score: -1.03; activity call: inactive

Which result is listed for LIN7B?
TNF reporter robust z-score: -1.21; activity call: inactive

What is on record for LIN7B?
TNF reporter robust z-score: -0.78; activity call: inactive

With PTK2, what does the deposit list?
TNF reporter robust z-score: 0.5; activity call: inactive

For PTK2, what does the deposit list?
TNF reporter robust z-score: 0.75; activity call: inactive

With PTK2, what does the deposit list?
TNF reporter robust z-score: 1.07; activity call: inactive

With PTK2, what does the deposit list?
TNF reporter robust z-score: 0.08; activity call: inactive

For IL10RB, how do the results read?
TNF reporter robust z-score: 0.03; activity call: inactive

With IL10RB, how do the results read?
TNF reporter robust z-score: -0.13; activity call: inactive

With IL10RB, how do the results read?
TNF reporter robust z-score: -1.04; activity call: inactive

What did the screen give for IL10RB?
TNF reporter robust z-score: -1.16; activity call: inactive

With IFI35, how do the results read?
TNF reporter robust z-score: 0.5; activity call: inactive

For IFI35, what was measured?
TNF reporter robust z-score: 0.44; activity call: inactive

Which result is listed for IFI35?
TNF reporter robust z-score: 0.4; activity call: inactive

For IFI35, how do the results read?
TNF reporter robust z-score: -0.11; activity call: inactive

How did the screen score SCARB1?
TNF reporter robust z-score: 5.04; activity call: active

What is on record for SCARB1?
TNF reporter robust z-score: 2.57; activity call: inactive

With SCARB1, how do the results read?
TNF reporter robust z-score: 3.09; activity call: active

Which result is listed for SCARB1?
TNF reporter robust z-score: 2.77; activity call: inactive

For ICAM2, what was measured?
TNF reporter robust z-score: 4.14; activity call: active

Which result is listed for ICAM2?
TNF reporter robust z-score: 3.22; activity call: active

How did the screen score ICAM2?
TNF reporter robust z-score: 2.06; activity call: inactive

With ICAM2, what was measured?
TNF reporter robust z-score: 4.51; activity call: active

For TMEM254, what does the deposit list?
TNF reporter robust z-score: 2.81; activity call: active

What did the screen give for TMEM254?
TNF reporter robust z-score: 2.36; activity call: inactive

How did the screen score TMEM254?
TNF reporter robust z-score: 0.93; activity call: inactive

With TMEM254, what was measured?
TNF reporter robust z-score: 0.16; activity call: inactive
